Results are given in words; binding and its absence hold for the method and conditions named. Some binding calls cover weakened binding; strength is not graded here. Sequences can lack the tags named with a protein. Values belong to the binder of their own block, whether it stands above or below them.
What was measured:
[1] = biological target: MBP-tagged lumenal segment of Arabidopsis thaliana STN7 (AA 46-89), wild type (Arabidopsis thaliana) (UniProt Q9S713); assay: condition: only after reducing the air-oxidized protein; non-reducing SDS-urea-PAGE (disulfide-linked oligomers); air-oxidized lumenal segment PEGylated with mPEG-MAL (15 uM protein, 25 °C, 1 hour) and then reduced; non-reducing 8 % SDS-urea-PAGE (lane 7, Fig. 1D); both purified
[2] = biological target: MBP-tagged lumenal segment of Arabidopsis thaliana STN7 (AA 46-89), wild type (Arabidopsis thaliana) (UniProt Q9S713); assay: non-reducing SDS-urea-PAGE (disulfide-linked oligomers); 5 uM desalted MBP-tagged lumenal segment, air-oxidized or with 2 mM diamide or H2O2 for 30 minutes at room temperature, non-reducing 8 % SDS-urea-PAGE; oxidants raise the share of dimers, and higher order oligomers appear for the wild type; both purified
[3] = biological target: MBP-tagged stromal segment of Arabidopsis thaliana STN7 (AA 162-216) (Arabidopsis thaliana) (UniProt Q9S713); assay: non-reducing SDS-urea-PAGE (disulfide-linked oligomers); air-oxidized MBP-tagged stromal segment, non-reducing SDS-urea-PAGE, Coomassie stain; higher-order oligomers unchanged by 0.1 mM DTT, gone with Trx-f1 and 0.1 mM DTT; both purified

binding [1]: no binding | binding [2]: binds weakly
B1: MBP-tagged lumenal segment of Arabidopsis thaliana STN7 (AA 46-89), wild type (domain or fragment, UniProt Q9S713 46-89)
chain: AQLIDTVHNLFIGVGVGLPCTVMECGDMIYRSTLPKSNGLTITA

binding [3]: no binding
B2: MBP-tagged stromal segment of Arabidopsis thaliana STN7 (AA 162-216) (domain or fragment, UniProt Q9S713 162-216)
chain: GEYVLKKATEYGAVEIWMNERVRRACGNSCADFVYGFLDKSSKKGPEYWLLWKYE

— paper PMC11808413 (FEBS letters, 2024)
